Source: patent US20160274132A1
Results are given in words; binding and its absence hold for the method and conditions named. Some results given as binding are weak or reduced against the parent protein; the word gives no strength.

Legend:
[1] = target: T1, human calcitonin receptor (hCTR) (human) (UniProt P30988); test: FACS scatter plots of Jurkat cells with Sytox Red
T1 sequence: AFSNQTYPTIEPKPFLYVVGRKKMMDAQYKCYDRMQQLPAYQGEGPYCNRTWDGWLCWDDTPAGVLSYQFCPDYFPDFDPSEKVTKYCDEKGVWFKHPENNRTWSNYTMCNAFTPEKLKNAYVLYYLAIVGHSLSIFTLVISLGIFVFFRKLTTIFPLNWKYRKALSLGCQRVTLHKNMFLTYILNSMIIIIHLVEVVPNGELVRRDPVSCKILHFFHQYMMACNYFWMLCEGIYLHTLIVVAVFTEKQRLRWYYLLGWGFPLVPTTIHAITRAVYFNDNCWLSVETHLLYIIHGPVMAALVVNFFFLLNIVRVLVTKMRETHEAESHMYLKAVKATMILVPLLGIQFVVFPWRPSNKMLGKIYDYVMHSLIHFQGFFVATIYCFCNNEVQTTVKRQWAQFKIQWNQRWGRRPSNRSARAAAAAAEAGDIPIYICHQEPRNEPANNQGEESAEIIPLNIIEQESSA

[2] = target: T1, human calcitonin receptor (hCTR) (human); test: FACS of staurosporine-treated Jurkat cells, live staining with 1 ug/mL
[3] = target: T1, human calcitonin receptor (hCTR) (human); test: FACS on cell lines expressing hCTR
[4] = target: T1, human calcitonin receptor (hCTR) (human); test: FACS histograms of Jurkat cells induced to undergo programmed cell death
[5] = target: T1, human calcitonin receptor (hCTR) (human); test: FACS scatter plots of Jurkat cells

binding [2]: binds
binding [3]: binds
binding [5]: binds
B1: MAb 46/08-2C4 conjugated with AlexaFluor 568 (MAb2C4:AF568) (antibody, V domains shown)
VH: QVHLQQSGAELARPGASVRLSCEASGYTFTKYWMQWIKQRPGQGLEWIGAIYPGDGDSRYTPKFKGKATLTADKSSGTAYIQLSSLASEDSAVYYCARGDGTYWGQGTLVTVSA
VL: DIQMTQSPASLSASVGETVTITCRASENIYSYLAWYQQKQGKSPQLLVYKAKTLEEGVPSRFSGSGSGTQFSLKINSLQPEDFGSYYCQHHYGTPRTFGGGTKLEIK
modifications: AlexaFluor 568 succinimidyl ester conjugate; labelled residues not stated
binding [1]: binds
binding [4]: binds
